The whole screen tested about 330,000 compounds, of which about 7,700 (2.3%) were called active. This list was built around the results that the source calls inconclusive (neither active nor inactive); the mix of calls is not that of the screen. Calls follow the shape of the dose curve; as a rule, active = well fitted inhibition curve with a large enough effect; inconclusive = small, poorly fitted or top-dose-only effect, or effect the other way; inactive = flat fitted curve, though single readings scatter. Where the call is inconclusive, the potency comes from a doubtful curve fit.
Assay: qHTS screen for small molecules that inhibit ELG1-dependent DNA repair in human embryonic kidney (HEK293T) cells expressing luciferase-tagged ELG1; also: nearly all actives have a fitted effect of over 55% in size
Settings: HEK293T ELG1-luciferase reporter, luminescence, 16 h, DNA damage induced by 5-fluorouridine; series mostly up to 46.1 µM
How it was run: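 Reporter activity after DNA damage by 5-fluorouridine is monitored. Compound-treated cells incubate 16 hr at 37 °C, then ONE-Glo is added for 30 min before luminescence reading.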
Potency is read from the fitted curve at half-maximal effect.

SMILES | Potency
CCn1c(-c2cccn(Cc3ccc(Cl)cc3Cl)c2=O)n[nH]c1=S | inactive
CC1(C)O[C@@H]1COc1c2ccoc2cc2oc(=O)ccc12 | inactive
Cc1nc2ccccn2c1C(=O)N/N=C/c1ccc([N+](=O)[O-])o1 | active: 10.3 µM
Cc1c(NC(=O)C(C)OC(=O)C23CC4CC(CC(Br)(C4)C2)C3)c(=O)n(-c2ccccc2)n1C (stereo not drawn) | inconclusive: 10.3 µM [inhibitor, partial curve]
Cc1[nH]c2ccccc2c1C(=O)C(=O)NC1CC1 | inconclusive: 9.2 µM [activator, partial curve]
COC(=O)c1cccc(S(=O)(=O)N2CCC(c3nc4ccccc4o3)CC2)c1 | inconclusive: 5.17 µM [inhibitor, partial curve]
CCOC(=O)C1=C(C)NC(C)=C(C(=O)OCC)C1C(=O)OCC(=O)NC1CCCCC1 | active: 10.3 µM
COc1cc(OC)c(C2Nc3cccc4cccc(c34)N2)c(OC)c1 | inconclusive: 29.1 µM [inhibitor, single point]
CCOC(=O)N1CCN(C(=O)CNC(=O)c2nn(-c3ccc(OC)c(OC)c3)c(=O)c3ccccc23)CC1 | inconclusive: 25.9 µM [inhibitor, single point]
COc1ccc(C(NC(=O)c2cc(OC)ccc2OC)c2ccccc2)cc1 (stereo not drawn) | inconclusive: 29.1 µM [inhibitor, single point]
O=C1CC(Cc2ccccc2)C(=O)N1c1ncccn1 (stereo not drawn) | inconclusive: 8.2 µM [activator, partial curve]
COc1ccccc1NC(=O)N(CCCN1CCOCC1)Cc1cc2cc3c(cc2[nH]c1=O)OCO3 | inactive
CC(C)c1nnc(NC(=O)CCS(=O)(=O)Cc2ccccc2)s1 | inactive
Cc1ccc(OCCNC(=O)c2cccc(Oc3ccc(C(F)(F)F)cc3[N+](=O)[O-])c2)cc1 | inconclusive: 8.2 µM [inhibitor, partial curve, poor fit]
Cn1c(-c2cccc(Br)c2)n[nH]c1=O | inconclusive: 29.1 µM [activator, single point]
Cc1cnn2c(C3CC3)ccnc12 | inactive
O=c1oc2ccccc2nc1/C=C(\O)c1ccc(Br)cc1 | inconclusive: 5.8 µM [inhibitor, partial curve, poor fit]
CCc1nc2ccccc2c(C(=O)NCc2ccccc2)c1C | inconclusive: 6.51 µM [inhibitor, single point]
C[n+]1c2n(c3ccccc31)N=C(c1cc(C(C)(C)C)c(O)c(C(C)(C)C)c1)CS2 | inconclusive: 2.59 µM [inhibitor, full curve]
Cc1noc(C)c1C(=O)Nc1nc2ccc(S(C)(=O)=O)cc2s1 | inconclusive: 11.6 µM [activator, partial curve]
CCOCCOC(=O)NCCCCCCNC(=O)OCCOCC | inconclusive: 23.1 µM [activator, single point]
CC(C)(C)n1ncc2c(=O)n(CC(=O)NCc3ccc(F)cc3)cnc21 | inconclusive: 2.31 µM [activator, partial curve]
O=C(C[C@H]1C[C@H](C(=O)N2CCOCC2)[C@@]2(CCC3CCCC3)c3[nH]c4cc(-c5ccco5)ccc4c3CCN2C1=O)NCC12CC3CC(CC(C3)C1)C2 | inactive

Single values from the list:
Cn1c(-c2cccc(Br)c2)n[nH]c1=O | Potency: inconclusive: 29.1 µM [activator, single point]
O=C1CC(Cc2ccccc2)C(=O)N1c1ncccn1 (stereo not drawn) | Potency: inconclusive: 8.2 µM [activator, partial curve]
CC(C)(C)n1ncc2c(=O)n(CC(=O)NCc3ccc(F)cc3)cnc21 | Potency: inconclusive: 2.31 µM [activator, partial curve]
COc1cc(OC)c(C2Nc3cccc4cccc(c34)N2)c(OC)c1 | Potency: inconclusive: 29.1 µM [inhibitor, single point]
COC(=O)c1cccc(S(=O)(=O)N2CCC(c3nc4ccccc4o3)CC2)c1 | Potency: inconclusive: 5.17 µM [inhibitor, partial curve]

Remaining list, next part.

SMILES | Potency
COc1ccc(N(CC(=O)NCc2ccccc2)C(=O)Cn2nnc(-c3ccccc3F)n2)cc1OC | inconclusive: 25.9 µM [inhibitor, single point]
CCCc1nnc2n1N=C(c1ccc([N+](=O)[O-])cc1)CS2 | inconclusive: 18.3 µM [inhibitor, single point]
CCOc1ccc(C(=O)NCC(=O)Nc2cc(C)ccn2)cc1OCC | inconclusive: 13 µM [activator, partial curve, poor fit]
CCOC(=O)Cc1csc(NC(=O)CC(C)(C)C)n1 | inconclusive: 25.9 µM [activator, partial curve, poor fit]
CN(CC(=O)Nc1cccc(F)c1)C(=O)CN1C(=O)C2CC=CCC2C1=O (stereo not drawn) | inactive
CCN(C[C@H]1N[C@@](CC)(C(=O)OC)[C@H]2C(=O)N(Cc3ccccc3)C(=O)[C@@H]12)C(C)=O | inconclusive: 18.3 µM [activator, partial curve, poor fit]
N=c1oc2cc(O)ccc2cc1C(=O)Nc1ccc(F)cc1 | inconclusive: 2.59 µM [activator, full curve]
Cc1cccc(NC(=S)N2CCCCCC2)c1C | inconclusive: 3.66 µM [inhibitor, single point]
Cc1ccccc1NC(=O)CSc1nnc(C2CC2)n1CC1CCCO1 (stereo not drawn) | inactive
Cc1cc(C(=O)Nc2ccc(Br)cc2)cs1 | inconclusive: 3.66 µM [activator, full curve]
O=C(/C=C/c1ccco1)Nc1nc(-c2ccccc2)cs1 | inconclusive: 2.59 µM [activator, partial curve]
COc1ccccc1NC(=O)NC(=O)c1ccccc1 | inconclusive: 4.11 µM [activator, full curve]
CCOC(CCNC(=O)c1cn(-c2cccc(C)n2)cn1)OCC | inconclusive: 23.1 µM [activator, partial curve, poor fit]
CCOc1cc(/C=C(\C#N)C(=O)Nc2cccc(C(=O)O)c2)ccc1OCc1ccc(Br)cc1 | inactive
CN1CCC(=C(c2ccc(Cl)cc2)c2ccccn2)CC1 | inconclusive: 25.9 µM [activator, single point]
O=C(CSC(=S)N1CCCC1)N1CCN(S(=O)(=O)c2ccccc2F)CC1 | inactive
Cc1ccc(N2CC(NS(=O)(=O)c3cccnc3)CC2=O)cc1 (stereo not drawn) | inconclusive: 10.3 µM [activator, single point]
O=C(Cc1ccc(Cl)cc1)N1CCC2(CC1)NCCc1[nH]cnc12 | inconclusive: 29.1 µM [activator, single point]
COc1ccc(NC(=O)c2cc3c(=O)n(C)c4ccccc4c3n2C)cc1OC | inconclusive: 29.1 µM [inhibitor, single point]
COCCNc1nc2c(c(=O)n(Cc3cccc(Br)c3)c(=O)n2C)n1C | inactive
COc1c(C)cc(NC(=O)c2ccc3c(c2)NC(=O)CO3)cc1C | inconclusive: 20.6 µM [inhibitor, single point]
Cc1cc(/C=N/Nc2nc(N)ncc2[N+](=O)[O-])c(C)n1-c1cccc(C(F)(F)F)c1 | inconclusive: 2.59 µM [activator, partial curve]
CCCCN1CC(O)=C(c2nc3ccccc3[nH]2)C1=N | inconclusive: 0.92 µM [activator, partial curve, poor fit]

SMILES | Potency
Cc1ccc(-c2cn(-c3ccc(SC(F)F)cc3)c3[n+]2CCC3)cc1 | inconclusive: 9.2 µM [inhibitor, partial curve]
CCOC(=O)N1CCN(C(=O)c2cc(COc3ccc4ncccc4c3)on2)CC1 | active: 9.2 µM
CCc1nnc(NC(=O)c2ccc(Cl)c(S(=O)(=O)N3CCc4ccccc4C3)c2)s1 | inconclusive: 16.4 µM [inhibitor, partial curve]
O=C(COC(=O)c1ccc(Br)o1)Nc1ncc(Cl)cc1Cl | inconclusive: 20.6 µM [inhibitor, single point]
O=C(CN1CCN(Cc2ccc(Cl)cc2)CC1)N/N=C/c1ccccc1F | inactive
Cc1cccn2c(=O)c3cc(C(=O)NCC4CCCO4)c(=N)n(C4CCCC4)c3nc12 (stereo not drawn) | inactive
COC(=O)CCCC1=CC2=CC(=O)C(C)(OC(=O)C3CCCC3)C(=O)C2=CO1 (stereo not drawn) | inconclusive: 23.1 µM [activator, partial curve, poor fit]
CC12CCC(=O)N1C(C(=O)Nc1nc3ccc(Cl)cc3s1)CS2 (stereo not drawn) | inconclusive: 1.64 µM [activator, single point]
Cc1noc(C)c1CSCC(=O)N(C)CC(=O)Nc1ccc(Cl)c(C(F)(F)F)c1 | inactive
Cc1ccccc1CC(=O)c1ccc(O)c(C)c1O | inactive
Cc1c(C(=O)N2CCOCC2)[nH]c2ccc(OCc3ccccc3)cc12 | active: 18.4 µM
CCCC(=O)N1CCN(c2nc3ccc(Br)cc3s2)CC1 | inconclusive: 13 µM [activator, partial curve]
O=C(CCNC(=O)c1ccccc1Cl)NCC1CCCO1 (stereo not drawn) | inactive
CSCC[C@H](NC(=O)OC(C)(C)C)c1nnc(SCc2ccc(F)cc2)o1 | inconclusive: 35.5 µM [inhibitor, single point]
COc1ccc(S(=O)(=O)NCC2CCCN(Cc3cccnc3)C2)cc1 (stereo not drawn) | inactive
CC1CCN(CCCNC(=O)c2coc3nc4ccccc4nc23)CC1 | inconclusive: 12.6 µM [activator, partial curve, poor fit]
Cn1nccc1C(=O)OCC(=O)Nc1ccccc1Cl | inconclusive: 18.3 µM [activator, partial curve, poor fit]
O=C(NCC1CCCO1)c1ccc2c(c1)C(=O)N(c1cccc([N+](=O)[O-])c1)C2=O (stereo not drawn) | inactive
CCc1nnc(NC(=O)CSc2nc(-c3ccccc3)cc(-c3ccc(F)cc3)c2C#N)s1 | inactive
Cc1ccc(C)c(NC(=O)/C(C#N)=C/c2cn(CC(=O)NCc3ccco3)c3ccccc23)c1 | inactive
Cc1oc(-c2cccc(Cl)c2)nc1CN1CCCC(C(=O)NC(C)c2ccc3c(c2)OCCO3)C1 (stereo not drawn) | inconclusive: 23.1 µM [inhibitor, single point]
Cc1cc(C(=O)NCCCN2CCN(c3cc(Cl)ccc3C)CC2)n(-c2ccccc2)n1 | inconclusive: 23.1 µM [inhibitor, partial curve]

Reference: PubChem BioAssay AID504467 (National Center for Advancing Translational Sciences (NCATS), 2011)
